# Assay results taken from article PMC10895875.
# Amino acid sequences for entries named in this document (tags omitted). A change or cut given only in a name is not applied to a line headed by its entry.
# UniProt P0DMV8: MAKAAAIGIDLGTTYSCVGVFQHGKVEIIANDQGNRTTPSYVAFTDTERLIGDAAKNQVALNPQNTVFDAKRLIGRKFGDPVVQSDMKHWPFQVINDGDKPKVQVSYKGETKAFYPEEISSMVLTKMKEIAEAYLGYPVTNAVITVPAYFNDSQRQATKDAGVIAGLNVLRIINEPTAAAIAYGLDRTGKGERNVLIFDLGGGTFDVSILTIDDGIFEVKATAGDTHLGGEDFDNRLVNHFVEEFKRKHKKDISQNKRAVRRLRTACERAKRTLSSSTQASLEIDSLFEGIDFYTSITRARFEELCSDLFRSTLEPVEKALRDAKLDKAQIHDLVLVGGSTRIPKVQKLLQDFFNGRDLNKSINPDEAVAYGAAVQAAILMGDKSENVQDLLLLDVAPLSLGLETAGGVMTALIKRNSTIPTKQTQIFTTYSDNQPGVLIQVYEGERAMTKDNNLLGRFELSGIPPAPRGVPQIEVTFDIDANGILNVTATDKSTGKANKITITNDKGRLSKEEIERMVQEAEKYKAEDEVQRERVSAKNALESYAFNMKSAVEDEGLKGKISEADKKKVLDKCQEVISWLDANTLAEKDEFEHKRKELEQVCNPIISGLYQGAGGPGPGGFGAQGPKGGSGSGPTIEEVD
# UniProt O95817: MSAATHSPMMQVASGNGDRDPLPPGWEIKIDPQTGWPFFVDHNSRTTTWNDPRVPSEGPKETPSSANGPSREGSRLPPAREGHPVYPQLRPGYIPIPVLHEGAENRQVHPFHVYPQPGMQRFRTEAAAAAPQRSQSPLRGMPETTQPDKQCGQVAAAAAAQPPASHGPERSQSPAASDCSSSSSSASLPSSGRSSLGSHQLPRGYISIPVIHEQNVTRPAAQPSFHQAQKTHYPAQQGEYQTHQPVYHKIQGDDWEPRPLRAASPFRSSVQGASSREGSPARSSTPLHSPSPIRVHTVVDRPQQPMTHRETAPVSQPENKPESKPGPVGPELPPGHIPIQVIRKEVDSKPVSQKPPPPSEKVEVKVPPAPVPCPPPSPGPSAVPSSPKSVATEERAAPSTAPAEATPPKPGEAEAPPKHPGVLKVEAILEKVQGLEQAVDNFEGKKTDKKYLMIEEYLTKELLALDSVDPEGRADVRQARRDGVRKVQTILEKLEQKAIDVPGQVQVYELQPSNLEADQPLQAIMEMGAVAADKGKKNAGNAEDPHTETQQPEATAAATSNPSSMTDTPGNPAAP
# Results are given in words; binding and its absence hold for the method and conditions named. Binding seen in cells or lysates may run through a third protein. Some entries that bind do so weakly or less than the wild type.
# Assays:
# [1] = target: heat shock protein 70 (Hsp70) (human (endogenous in MCF-7 and T47D lines)) (UniProt P0DMV8); assay: co-IP; Hsp70 antibody, protein G sepharose, endogenous proteins in lysates (IP buffer: 10 mM HEPES pH 7.4, 50 mM NaCl, 5 mM MgCl2, 1 mM EGTA, 5% glycerol, 0.5% Triton X-100; overnight 4 °C) of MCF-7, MCF-7/R1, MCF-7/R2, MCF-7/TAM-R, T47D, T47D/TAM-R cells and MCF-7/TAM-R xenograft tumors; cells or mice untreated or treated with S1g-2, MKT-077 or VER-155008; blots for Bim, Bag3, ERα36, ERα66
# [2] = target: Bag3 (human (endogenous in MCF-7 and T47D lines)) (UniProt O95817); assay: co-IP; five successive precipitations with Bim or Bag3 antibody and protein G sepharose from cell lysates, pooled, blot for Hsp70; percent of the Hsp70 of the lysate that was pulled down; MCF-7, MCF-7/R1, MCF-7/R2, MCF-7/TAM-R, T47D, T47D/TAM-R
binding [1],binding [2],Substance
binds,–,Bag3 (from UniProt O95817 1-575)
–,binds,heat shock protein 70 (Hsp70) (from UniProt P0DMV8 1-641)
